In publication PMC8189816, “Molecular Basis for the Interactions of Human Thioredoxins with Their Respective Reductases” (Oxidative Medicine and Cellular Longevity, 2021):
Results are given in words; binding and its absence hold for the method and conditions named. A result given as binding can be weak or reduced; the word gives no strength.

Target: human thioredoxin reductase 1 (TrxR1) U498C mutant (human) (UniProt Q16881)
Assay: other fluorescence titration; tryptophan fluorescence quenching, excitation 296 nm, 25°C, 50 mM Tris, 1 mM EDTA, pH 7.4; spectrum of the mixture against the sum of the individual spectra, at different concentrations of thioredoxin; both purified

B1: human Trx1 C32,35S (redox-inactive active site double mutant) (natural protein, UniProt P10599 1-105, looked up)
chain: MVKQIESKTAFQEALDAAGDKLVVVDFSATWSGPSKMIKPFFHSLSEKYSNVIFLEVDVDDCQDVASECEVKCMPTFQFFKKGQKVGEFSGANKEKLEATINELV
notes: human cytosolic thioredoxin 1, both active site cysteinyl residues exchanged for seryl residues; also called hTrx1C32,35S; double cysteinyl mutant
In the case of B1, the binding is reported as “binds”.
